Measured values published in PubChem BioAssay AID651640 (Broad Institute, 2012).
Hit rate of the full screen: of about 350,000 compounds, about 6,000 (1.7%) were called active. This list was built around the results that the source calls inconclusive (neither active nor inactive); the mix of calls is not that of the screen. Rule as the data show it: active = CPE inhibition above about 20% (passing the limit was not always enough); inconclusive = no clear call, values can overlap the other calls; tested in BHK-21 cells. The source holds several records for some structures; these can differ, active in one and inactive in another.

Test: protection of cells from dengue 2 killing – plate reader, single concentration, primary screen (AID 651640);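 also: 0% = median of neutral control wells and 100% = median of positive control wells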
Conditions: DENV2-infected cells, cytopathic effect rescue, at 9.99 µM, active compounds read high

| SMILES | CPE inhibition |
| --- | --- |
| CCn1c(/C=C/c2ccccc2)nc2ccccc2c1=O | inactive: 0.615% |
| COc1cc(C(=O)Nc2nc3ccc(S(C)(=O)=O)cc3s2)cc(OC)c1C | inactive: 3.16% |
| O=C(C=Cc1ccccc1)c1c[nH]c2ccccc2c1=O | inconclusive: 35.5% |
| O=C(c1ccccn1)N1CC2(C1)[C@H](c1ccccc1)[C@@H](CO)N2Cc1ccc(F)cc1 | active: 38.9% |
| CNC[C@H]1Oc2ccc(NC(=O)NC3CCCCC3)cc2CC(=O)N([C@H](C)CO)C[C@H]1C | inconclusive: 23.1% |
| CCOc1ccccc1N1CCN(C(=O)c2cccs2)CC1 | inconclusive: 29.2% |
| CN(C)CC#Cc1ccc([C@H]2[C@@H](CO)N(C(=O)C3CCC3)[C@H]2C#N)cc1 | active: 87.1% |
| CCc1c(C)nc2ncnn2c1Nc1ccc(C)cc1 | inconclusive: 39.8% |
| Cc1cnc(CN(C)C(=O)CC2C(=O)NCCN2Cc2cccc(F)c2F)[nH]1 (stereo not drawn) | active: 20.8% |
| CCCNC(=O)N1CC[C@@H]2[C@@H](CO)N(C)c3ccc(-c4ccccc4)cc3[C@@H]21 | inconclusive: 24.3% |
| C[C@H](O)C#Cc1cnc2c(c1)C(=O)N([C@H](C)CO)C[C@@H](C)[C@@H](CN(C)Cc1ccc(-c3ccccc3)cc1)O2 | inconclusive: 41.7% |
| COc1ccc(Cc2nnc(Nc3ccccc3)s2)cc1Br | inactive: 4.77% |
| Oc1c(N=Nc2nn[nH]n2)ccc2ccccc12 | active: 68.7% |
| CCOC(=O)/C(C#N)=C/c1c(N2CCN(Cc3ccc4c(c3)OCO4)CC2)nc2c(C)cccn2c1=O | inactive: 1.25% |
| C#CCNc1cc(-c2ccccc2)nc2ncnn12 | inconclusive: 20.2% |
| COc1ccc(NC(=O)N(C)[C@H]2C[C@H]3c4[nH]c5ccccc5c4CCN3C(=O)[C@H]2CO)cc1 | inactive: 14.5% |
| Cc1c(C)c2c(OCC(=O)N3CCC(C(N)=O)CC3)cc3c(c2oc1=O)CCC(C)(C)O3 | inconclusive: 21.1% |
| COc1cc2c(cc1O)C(CSC)Cc1cc3c(cc1N(C)CC2)OCO3 (stereo not drawn) | inconclusive: 43.6% |
| CCc1cccc(NC(=O)CC2SC(N3CCCC3)=NC2=O)c1 (stereo not drawn) | inconclusive: 27.9% |
| C[C@@H]1CN([C@@H](C)CO)C(=O)c2cc(NS(=O)(=O)c3ccc(Cl)cc3)ccc2O[C@H]1CN(C)CC1CC1 | active: 28.7% |
| CCOCCCNC(=O)CCc1nnc2n(CCC(C)C)c(=O)c3ccccc3n12 | inactive: 8.4% |
| O=C(CNC(=O)c1cc2c(n(-c3ccccc3)c1=O)CCCC2=O)c1ccccc1 | inconclusive: 24.4% |
| C[C@@H]1CN([C@@H](C)CO)C(=O)c2cc(NC(=O)CCC(F)(F)F)ccc2O[C@H]1CN(C)C(=O)NC1CCCCC1 | inactive: -1.43% |
| CC(C)(C)NC(=S)N1CCC(C(=O)c2ccc(F)cc2)CC1 | inactive: 0.216% |
| O=C(O)C[C@@H]1C[C@H]2c3cc(NC(=O)C4CCC4)ccc3O[C@H]2[C@H](CO)O1 | inactive: -2.81% |

| SMILES | CPE inhibition |
| --- | --- |
| Cc1n[nH]c(=O)c2c(NC(=O)CSc3nnc(C4CC4)n3C)oc(C)c12 | active: 39.1% |
| COc1ccc(S(=O)(=O)Nc2ccc3c(c2)OC[C@H](C)NC[C@@H](C)[C@@H](OC)CN(C)C3=O)cc1 | inactive: -8.56% |
| C[C@H](CO)N1C[C@H](C)[C@H](CN(C)S(=O)(=O)c2ccccc2)Oc2ncc(-c3ccncc3)cc2C1=O | inconclusive: 20.2% |
| CN(C)CCCNC(=O)C[C@@H]1CC[C@H]2[C@@H](COc3ccc(NC(=O)NC4CCCC4)cc3C(=O)N2C)O1 | inconclusive: 29.9% |
| C[C@]1(C(=O)NCc2cc(F)cc(C(F)(F)F)c2)C=C[C@@H](Cc2ccccc2)N1C(=O)c1ccccc1 | inconclusive: 22.1% |
| C[C@@H]1CN([C@H](C)CO)C(=O)CCCn2cc(nn2)CO[C@H]1CN(C)C(=O)Nc1ccccc1C(F)(F)F | active: 48% |
| O=C(Nc1cccc(Cl)c1)c1cccc(Oc2ccc([N+](=O)[O-])cc2Cl)c1 | inactive: 7.22% |
| CCC(=O)Nc1ccc(NC(=O)c2oc3ccccc3c2C)cc1 | active: 40% |
| CO[C@@H]1CN(C)C(=O)c2cc(NC(=O)C3CCOCC3)ccc2OC[C@@H](C)N(C)C[C@@H]1C | active: 35.7% |
| O=C(O)C[C@@H]1CC[C@@H](NC(=O)CCN2CCCCC2)[C@H](CO)O1 | inconclusive: 26.1% |
| Cc1cccc(S(=O)(=O)NC(=O)C2(C)CCN2C(=O)Cc2ccccc2)c1 (stereo not drawn) | inconclusive: 57.5% |
| CO[C@@H]1CN(C)C(=O)c2ccc(NC(=O)Nc3cccc(F)c3)cc2OC[C@H](C)N(C(C)=O)C[C@@H]1C | inactive: 16.6% |
| C[C@H](NC(=O)[C@H]1[C@H](CO)[C@H]2Cn3c(ccc(-c4ccccc4)c3=O)[C@@H]1N2C)c1ccccc1 | inconclusive: 24.4% |
| CC(C)C(=O)N1N=C(c2ccc(NS(C)(=O)=O)cc2)CC1c1cccs1 (stereo not drawn) | inconclusive: 63.2% |
| Cc1cccnc1C(NC(=O)C1CCN(CCCc2ccccc2)CC1)c1ccc(Cl)cc1 (stereo not drawn) | active: 20.2% |
| COc1ccc(-c2cc(-c3nnc(COC(=O)C4CC4C)o3)c3ccccc3n2)cc1OC (stereo not drawn) | inconclusive: 44.9% |
| C#CCOCCOCCOCCNc1nc(N2CCN(C(=O)[C@H]([C@@H](C)CC)n3cc(CCCCN)nn3)CC2)nc(N2CCN(C(=O)[C@H](CCCCN)n3cc(CCC(=O)O)nn3)CC2)n1 | inconclusive: 32.1% |
| Cc1ccc(C)c(C(=O)COC(=O)c2n[nH]c3ccccc23)c1 | inconclusive: 32.2% |
| C[C@@H]1CN([C@@H](C)CO)C(=O)c2cc(C#CC3CCCCC3)cnc2O[C@H]1CN(C)S(=O)(=O)c1ccc(F)cc1 | inconclusive: 23.8% |
| COc1ccccc1N1CCN(/N=C/c2cc(OC)c(OC(C)=O)c(OC)c2)CC1 | inconclusive: 22.7% |
| C[C@H](CO)N1C[C@H](C)[C@@H](CN(C)C(=O)NC2CCCCC2)OCCCC[C@H](C)Oc2ccc(NC(=O)C3CCCCC3)cc2C1=O | inconclusive: 26.1% |
| C[C@H]1CN([C@@H](C)CO)C(=O)Cc2cc(NC(=O)CCCCCC(=O)Nc3ccccc3N)ccc2O[C@H]1CN(C)C(=O)Nc1cccc2ccccc12 | active: 27.6% |
| CCCN(C)C[C@@H]1Oc2ncc(-c3ccc(F)cc3)cc2C(=O)N([C@H](C)CO)C[C@@H]1C | inconclusive: 33.6% |
| CN(c1ccccc1)S(=O)(=O)c1cccc(NS(=O)(=O)c2ccc(/C=C/C(=O)O)cc2)c1 | inconclusive: 20.1% |
| CCOC(=O)c1c(NC(=O)COc2ccccc2F)sc2c1CC(C)(C)NC2(C)C | inconclusive: 27.2% |

| SMILES | CPE inhibition |
| --- | --- |
| O=C(N/N=C/c1cccnc1)c1ccc(NC(=O)c2ccc(F)cc2)cc1 | inconclusive: 24.4% |
| CCOc1ccc(S(=O)(=O)N2CCOCC2)cc1NC(=O)CN1C(=O)NC(C)(C2CC2)C1=O (stereo not drawn) | inconclusive: 21.1% |
| O=C(NCCO)C(=O)NCC1OCCCN1S(=O)(=O)c1cc(F)ccc1F (stereo not drawn) | inconclusive: 38.3% |
| OC(CSc1ccccc1)CN1CCN(c2ccc(Cl)cc2)CC1 (stereo not drawn) | inconclusive: 32.8% |
| C[C@H](O)[C@@H]1CN2CCc3c([nH]c4ccccc34)[C@@H]2C[C@@H]1N(C)C(=S)Nc1ccc(C#N)cc1 | active: 25.1% |
| CCN(C/C=C/c1ccccc1OC)Cc1ccccc1 | inconclusive: 22% |
| COc1ccc(C(O)C2c3c(cc4c(c3OC)OCO4)CCN2C)c(CO)c1OC (stereo not drawn) | inconclusive: 22.8% |
| CO[C@@H]1CC[C@@H]2CCOc3ccc(C#N)cc3C(=O)N(C)C[C@@H](C)C(=O)N(C)C[C@H]1O2 | inconclusive: 40.3% |
| c1ccc(Nc2ccc(NCCc3c[nH]c4ccccc34)cc2)cc1 | inactive: -6.46% |
| Cc1ccc(S(=O)(=O)N(C)C[C@H]2OCc3ccccc3-c3c(n(C)c4ccccc34)C(=O)N([C@H](C)CO)C[C@@H]2C)cc1 | inactive: -2.37% |
| C=CCC[C@H](Cc1ccc(F)cc1)C(=O)OC[C@@H](Cc1c[nH]c2ccccc12)NC(=O)[C@@H](CC=C)CC(=O)N(CCO)Cc1ccccc1 | active: 20.9% |
| COCCN(C(=O)CSc1nc2ccc(Cl)cc2[nH]1)c1c(N)n(Cc2ccccc2)c(=O)[nH]c1=O | inconclusive: 50.2% |
| CC(=O)Nc1sc(C)c(C)c1C(=O)OCC(=O)N(CCC#N)c1cc(C)cc(C)c1 | inconclusive: 47.8% |
| COc1ccc(S(=O)(=O)N(C)C[C@@H]2OCCCC[C@@H](C)Oc3ccc(NC(=O)c4ccncc4)cc3C(=O)N([C@H](C)CO)C[C@@H]2C)cc1 | inconclusive: 25.5% |
| CN(C)CCNc1ncnc2c1cnn2-c1ccc(Cl)cc1 | active: 39.7% |
| CC(C)NC(=O)Nc1cccc2c1O[C@@H](CN(C)Cc1ccc(C(F)(F)F)cc1)[C@@H](C)CN([C@H](C)CO)C2=O | inconclusive: 44.5% |
| CCCCC1CCC(C(=O)OC(C)C(=O)Nc2ccc(NC(C)=O)cc2)CC1 (stereo not drawn) | inconclusive: 45.1% |
| O=C(C[C@@H]1CC[C@H]2[C@@H](COC[C@H](O)CN2CCc2ccccc2)O1)NCc1ccc(Oc2ccccc2)cc1 | active: 23.6% |
| COc1ccc(S(=O)(=O)N2CCOCC2)cc1NC(=O)CCNC(=O)c1ccc(Br)cc1 | inconclusive: 22.6% |
| CC(C)CN(C(=O)CN1CCN(c2ccccc2O)CC1)c1c(N)n(CC(C)C)c(=O)[nH]c1=O | inactive: 1.48% |
| COc1ccc(C2/C(=C(/O)c3ccc(Br)cc3)C(=O)C(=O)N2C)cc1 (stereo not drawn) | inconclusive: 32% |
| Cc1cc(=O)n2nc(N3CCCC3C(=O)Nc3ccccc3C)sc2n1 (stereo not drawn) | inconclusive: 24.5% |
| CC(C)C(=O)NN(C(=O)c1ccccc1)c1ccccc1 | inactive: -4.55% |

As entered above:
`CCC(=O)Nc1ccc(NC(=O)c2oc3ccccc3c2C)cc1` | CPE inhibition: active: 40%
`CO[C@@H]1CC[C@@H]2CCOc3ccc(C#N)cc3C(=O)N(C)C[C@@H](C)C(=O)N(C)C[C@H]1O2` | CPE inhibition: inconclusive: 40.3%
`CN(C)CC#Cc1ccc([C@H]2[C@@H](CO)N(C(=O)C3CCC3)[C@H]2C#N)cc1` | CPE inhibition: active: 87.1%
`CCOC(=O)/C(C#N)=C/c1c(N2CCN(Cc3ccc4c(c3)OCO4)CC2)nc2c(C)cccn2c1=O` | CPE inhibition: inactive: 1.25%
`c1ccc(Nc2ccc(NCCc3c[nH]c4ccccc34)cc2)cc1` | CPE inhibition: inactive: -6.46%
`CO[C@@H]1CN(C)C(=O)c2cc(NC(=O)C3CCOCC3)ccc2OC[C@@H](C)N(C)C[C@@H]1C` | CPE inhibition: active: 35.7%
